Results taken from patent publication US20250109177A1, “EVOLVED PROTEIN DEGRONS” (The Broad Institute, Inc., priority 2022, published 2025).
Results are given in words; binding and its absence hold for the method and conditions named. Some binding calls cover weakened binding; strength is not graded here. Sequences can lack the tags named with a protein.

Chains of the proteins cited; added tags and fusions are not shown. Lines headed by an entry give the natural chain unless they say otherwise; changes in a name come on top.
UniProt Q96SW2: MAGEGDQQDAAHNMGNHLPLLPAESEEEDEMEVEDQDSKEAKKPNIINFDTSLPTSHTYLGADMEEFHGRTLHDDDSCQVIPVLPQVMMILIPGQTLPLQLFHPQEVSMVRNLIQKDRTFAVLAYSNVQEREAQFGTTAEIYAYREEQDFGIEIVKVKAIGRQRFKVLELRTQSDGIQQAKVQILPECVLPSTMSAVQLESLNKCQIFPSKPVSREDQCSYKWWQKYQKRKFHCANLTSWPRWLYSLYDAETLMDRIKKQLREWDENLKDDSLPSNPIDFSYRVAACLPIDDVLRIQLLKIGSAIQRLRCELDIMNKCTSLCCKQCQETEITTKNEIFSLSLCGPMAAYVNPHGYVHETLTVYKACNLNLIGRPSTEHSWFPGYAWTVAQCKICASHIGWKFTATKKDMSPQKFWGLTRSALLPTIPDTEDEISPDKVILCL
UniProt Q16531: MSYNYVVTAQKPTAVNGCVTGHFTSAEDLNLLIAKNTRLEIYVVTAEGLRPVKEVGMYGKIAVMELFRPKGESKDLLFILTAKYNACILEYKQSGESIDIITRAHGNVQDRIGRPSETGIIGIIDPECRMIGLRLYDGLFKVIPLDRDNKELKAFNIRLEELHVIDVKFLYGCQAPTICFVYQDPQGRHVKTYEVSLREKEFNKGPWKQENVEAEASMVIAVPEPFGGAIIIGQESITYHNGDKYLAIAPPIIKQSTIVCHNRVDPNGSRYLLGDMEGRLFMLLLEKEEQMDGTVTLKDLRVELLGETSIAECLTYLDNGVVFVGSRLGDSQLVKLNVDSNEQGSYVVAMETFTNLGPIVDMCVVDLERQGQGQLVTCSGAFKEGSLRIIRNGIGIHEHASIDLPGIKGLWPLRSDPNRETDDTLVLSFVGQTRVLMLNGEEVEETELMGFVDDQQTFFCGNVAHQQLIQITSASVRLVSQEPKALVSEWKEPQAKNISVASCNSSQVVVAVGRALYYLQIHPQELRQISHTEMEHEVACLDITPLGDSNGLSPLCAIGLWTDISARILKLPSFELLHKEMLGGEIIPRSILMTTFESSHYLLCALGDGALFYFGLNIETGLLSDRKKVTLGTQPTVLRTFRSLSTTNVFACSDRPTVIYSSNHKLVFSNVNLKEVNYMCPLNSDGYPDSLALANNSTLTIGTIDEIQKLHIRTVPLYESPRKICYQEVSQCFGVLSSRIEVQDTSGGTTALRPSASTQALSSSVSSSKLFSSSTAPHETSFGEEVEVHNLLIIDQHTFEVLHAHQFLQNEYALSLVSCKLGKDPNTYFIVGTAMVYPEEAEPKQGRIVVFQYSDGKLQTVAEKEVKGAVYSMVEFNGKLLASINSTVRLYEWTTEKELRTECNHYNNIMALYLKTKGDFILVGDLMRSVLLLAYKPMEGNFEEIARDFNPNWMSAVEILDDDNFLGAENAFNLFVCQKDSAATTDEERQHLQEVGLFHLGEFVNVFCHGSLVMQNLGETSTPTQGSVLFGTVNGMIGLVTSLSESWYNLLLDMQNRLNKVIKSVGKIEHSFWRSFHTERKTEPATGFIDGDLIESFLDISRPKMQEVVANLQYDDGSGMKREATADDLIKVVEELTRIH

How the values were obtained:
[1] = target: T1, DDB1·CRBN precomplexed with PT-179 (human) (UniProt Q96SW2+Q16531); experiment: BLI, immobilized MBP-degron, DDB1·CRBN precomplexed with PT-179
[2] = target: T2, DDB1·CRBN precomplexed with pomalidomide (human) (UniProt Q96SW2+Q16531); experiment: BLI, immobilized MBP-degron, DDB1·CRBN precomplexed with pomalidomide
[3] = target: T1, DDB1·CRBN precomplexed with PT-179 (human); experiment: bio-layer interferometry, immobilized MBP-degron, DDB1·CRBN precomplexed with PT-179
[4] = target: T2, DDB1·CRBN precomplexed with pomalidomide (human); experiment: bio-layer interferometry, immobilized MBP-degron, DDB1·CRBN precomplexed with pomalidomide

Measured: binding

B1: MBP-SD40 (minimal evolved degron SD40 fused to maltose binding protein) (designed binder, not shown: large carriers)
chain: LLLFCPICGFTCRQKGNLLRHINLHTGEKLFKYHLY
binds: all assays above
